Source: article PMC12667445, “Targeting RBM10‐Repressed RORB Activity in Liquid Condensates Inhibits Lysosomal Biogenesis and Neuroblastoma Progression via Affecting NF‐κB Signaling” (Advanced Science, 2025)

Chains of the proteins cited; added tags and fusions are not shown.
UniProt P98175: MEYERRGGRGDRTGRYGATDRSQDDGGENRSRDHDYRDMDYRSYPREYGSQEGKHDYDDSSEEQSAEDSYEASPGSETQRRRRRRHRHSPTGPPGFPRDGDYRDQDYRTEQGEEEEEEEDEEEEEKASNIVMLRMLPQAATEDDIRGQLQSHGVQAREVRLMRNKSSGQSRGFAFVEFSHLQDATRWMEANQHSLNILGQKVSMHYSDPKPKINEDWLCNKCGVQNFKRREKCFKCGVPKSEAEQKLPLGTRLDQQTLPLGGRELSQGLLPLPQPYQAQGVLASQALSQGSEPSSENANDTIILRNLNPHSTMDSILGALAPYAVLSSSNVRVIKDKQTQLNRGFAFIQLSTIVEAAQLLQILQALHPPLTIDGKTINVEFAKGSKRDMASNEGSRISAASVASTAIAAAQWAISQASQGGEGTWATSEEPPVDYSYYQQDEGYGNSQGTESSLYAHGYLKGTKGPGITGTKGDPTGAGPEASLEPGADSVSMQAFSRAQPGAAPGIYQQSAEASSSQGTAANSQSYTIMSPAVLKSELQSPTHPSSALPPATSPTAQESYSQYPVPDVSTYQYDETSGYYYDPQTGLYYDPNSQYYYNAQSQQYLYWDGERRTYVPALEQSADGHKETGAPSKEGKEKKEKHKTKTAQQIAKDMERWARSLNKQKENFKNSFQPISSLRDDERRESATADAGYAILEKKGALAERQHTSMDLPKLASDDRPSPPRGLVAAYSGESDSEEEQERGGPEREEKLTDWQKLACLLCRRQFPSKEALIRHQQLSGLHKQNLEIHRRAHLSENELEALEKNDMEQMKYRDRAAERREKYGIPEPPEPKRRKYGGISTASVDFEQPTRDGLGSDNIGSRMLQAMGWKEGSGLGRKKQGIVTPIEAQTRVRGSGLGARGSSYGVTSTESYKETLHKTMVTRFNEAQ

Biological target: T1, RAR‐related orphan receptor B (RORB), endogenous (human (endogenous in SH-SY5Y, SK-N-AS, SK-N-BE(2), IMR-32)) (UniProt Q92753)
T1 sequence: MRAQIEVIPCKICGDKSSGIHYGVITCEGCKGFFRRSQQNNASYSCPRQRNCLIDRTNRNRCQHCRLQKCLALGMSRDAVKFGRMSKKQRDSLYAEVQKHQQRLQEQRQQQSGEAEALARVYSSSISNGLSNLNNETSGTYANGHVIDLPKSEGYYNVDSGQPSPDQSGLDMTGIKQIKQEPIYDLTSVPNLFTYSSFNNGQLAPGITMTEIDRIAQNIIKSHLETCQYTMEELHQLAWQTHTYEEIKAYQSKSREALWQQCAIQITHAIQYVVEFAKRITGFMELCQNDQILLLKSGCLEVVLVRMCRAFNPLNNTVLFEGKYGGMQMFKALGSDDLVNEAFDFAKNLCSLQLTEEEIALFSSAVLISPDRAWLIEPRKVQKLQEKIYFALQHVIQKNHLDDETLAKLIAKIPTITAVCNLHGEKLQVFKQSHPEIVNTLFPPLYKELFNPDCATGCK
Test: affinity purification with mass spectrometry; co-IP with RORB specific antibody from lysates of SH-SY5Y and SK-N-AS cells; gel bands analysed by LC-MS/MS

Question: How did the binding turn out when “RNA binding motif protein 10 (RBM10), endogenous (from UniProt P98175 1-930)” was run?
Answer: binds

These are yes or no findings as the source states them, for the method shown. In cells and extracts the contact can be indirect. Here binding means that the protein was enriched with, or labelled near, the bait; the list need not be complete.
